The target of assay [1] is T1, β2m (12 kDa non-polymorphic light chain) (human, UniProt P61769 21-119).
T1 construct: No recombinant β2m was added; It came from the human HEK293 cells and co-purified under native conditions; also called beta-2-microglobulin
The assay can be described thus: immunoblot of purified protein (10 to 100 ng) with anti-β2m antibody; β2m co-purified. On the technique in general: Immunoblotting shows a protein as a band on a membrane.

The chains behind the UniProt entries cited, without tags or fusion partners. Where a name states a change or a piece, a line headed by the entry shows the natural chain unless it says otherwise.
UniProt P61769: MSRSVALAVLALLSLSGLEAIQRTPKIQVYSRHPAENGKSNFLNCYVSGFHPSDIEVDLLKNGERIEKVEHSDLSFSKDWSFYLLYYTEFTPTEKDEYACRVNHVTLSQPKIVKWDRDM

In assay [2] the target is T1, β2m (12 kDa non-polymorphic light chain). As to the kind of experiment: immunoblot of purified protein with anti-β2m antibody; β2m co-purified.

Results are given in words; binding and its absence hold for the method and conditions named. Binding seen in cells or lysates may run through a third protein. Some entries that bind do so weakly or less than the wild type.

B1: recombinant soluble HLA-G1 (protein)
MHC heavy: APLADYKDDDDKLAGSHSMRYFSAAVSRPGRGEPRFIAMGYVDDTQFVRFDSDSACPRMEPRAPWVEQEGPEYWEEETRNTKAHAQTDRMNLQTLRGYYNQSEASSHTLQWMIGCDLGSDGRLLRGYEQYAYDGKDYLALNEDLRSWTAADTAAQISKRKCEAANVAEQRRAYLEGTCVEWLHRYLENGKEMLQRADPPKTHVTHHPVFDYEATLRCWALGFYPAEIILTWQRDGEDQTQDVELVETRPAGDGTFQKWAAVVVPSGEEQRYTCHVQHEGLPEPLMLRWSKEGDGGIMSVRESRSLSEDL
modifications: glycosylated (N-linked site at asparagine 86 in the α1 region)
On to B1, for which the binding entry in assay [1] and in assay [2] was “binds” in each case.

The record behind these values is patent US20040044182A1 (published 2004).
